No constants are given. Whether binding was seen depends on the method and setting. A result given as binding can be weak or reduced; the word gives no strength.
Legend:
[1] = target: cynomolgus monkey CD8A (cynomolgus monkey); assay: in vivo PET spleen uptake in cynomolgus monkeys, nondepleted against CD8-depleted (anti-CD8 antibody CM-T807), 0.25 h and 2 h after injection
[2] = target: cynomolgus monkey CD8A (cynomolgus monkey); assay: in vivo PET organ uptake in cynomolgus monkeys, nondepleted against CD8-depleted (anti-CD8 antibody CM-T807), 0.25 h and 2 h after injection
[3] = target: cynomolgus monkey CD8A (cynomolgus monkey); assay: PET imaging of cynomolgus monkeys with and without CD8 T cell depletion

Measured: binding

B1: [124I]-IPEM CD8S365 (designed binder)
chain: LPAPKNLVVSRVTEDSARLSWTAPDAAFDSFGILYYEPVDSGEAITLPVPGSCRSYDLTGLKPGTEYWVVITGVKGGAPSTPLGTIFTT
modifications: [124I]-IPEM (maleimide label) conjugated to the free cysteine of E54C
binds: all assays above
